From PubChem BioAssay AID602313 (National Center for Advancing Translational Sciences (NCATS), 2012)
About 760 (0.19%) of roughly 390,000 compounds were called active. This list was built around the results that the source calls inconclusive (neither active nor inactive); the mix of calls is not that of the screen. The call rests on the fitted dose curve; in most records, active means well fitted inhibition curve with a large enough effect; inconclusive means small, poorly fitted or top-dose-only effect; inactive means flat fitted curve, though single readings scatter. Where the call is inconclusive, the potency comes from a doubtful curve fit.

assay: qHTS for Inhibitors of Vif-A3F Interactions: qHTS; conditions: HeLa A3F-eYFP + Vif (tagged APOBEC3F with the HIV-1 protein that degrades it), YFP fluorescence increase; series mostly up to 46.1 µM; activity, negative = active: at the top concentration; further: nearly all actives have a fitted effect of over 65% in size; on activity, negative = active: % of control where 0% means no effect
Procedure, shortened: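 HeLa cells stably expressing A3F-eYFP plus Vif, plated and incubated overnight at 37 deg C, then exposed to compounds overnight at 37 deg C. Blocked degradation read as raised yellow fluorescence (Ex 488/Em 500-530).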
Potency means the concentration at half of the fitted maximal effect.

SMILES	Potency	activity, negative = active
Cc1cc(NC(=O)Nc2nnc(N(C)Cc3ccccc3)s2)ccc1Br	inconclusive: 35.5 µM [inhibitor, single point]	–
Cc1ccc(O)c(NC(=O)c2cc(-c3ccccc3O)no2)c1	active: 11.2 µM	–
Cc1cc(Cl)ccc1NC(=S)NCCC(c1ccccc1)c1ccccc1	–	inactive: 5.72%
Cc1cc(=O)[nH]c(SCC(=O)N2CC3(C)CC2CC(C)(C)C3)n1 (stereo unspecified)	inconclusive: 25.1 µM [inhibitor, single point]	–
CCn1ccc(C(=O)NC2CCCC2)n1	–	inactive: 1.56%
O=c1cc(CSc2ccccc2)nc(-c2ccccc2)[nH]1	inconclusive: 7.94 µM [inhibitor, partial curve, poor fit]	–
COC(=O)C1=NN(c2ccccc2)C2(S1)SC(C(C)=O)=C(C)N2c1ccccc1 (stereo unspecified)	–	inactive: -0.0319%
Fc1ccc(/C=N/NC2=Nc3cccc4cccc2c34)cc1	inconclusive: 25.1 µM [inhibitor, single point]	–
O=[N+]([O-])c1ccc(-c2ccc(/C=N/Nc3nc(N4CCCCC4)nc(N4CCCCC4)n3)o2)cc1	inconclusive: 0.631 µM [inhibitor, full curve, poor fit]	–
CN(CC(=O)Nc1ccccc1Br)C(=O)c1cccnc1Nc1cccc(C(F)(F)F)c1	inconclusive: 7.08 µM [inhibitor, partial curve, poor fit]	–
OCCCn1c(C2CCCN2c2nc(-c3ccc(Cl)cc3)cs2)nc2cc(Cl)c(Cl)cc21 (stereo unspecified)	active: 22.4 µM	–
Cc1cc(NS(=O)(=O)c2ccccc2)cc(Cl)c1O	–	inactive: -18.2%
Cc1ccc(-c2nc(Nc3cccc(C)c3)sc2CC(=O)O)cc1	inconclusive: 17.8 µM [inhibitor, partial curve, poor fit]	–
Cc1cccc(OCCn2c(SCC(=O)O)nc3ccccc32)c1	–	inactive: -0.934%
N#CC1=C(SCC(=O)NC2CC2)NC(=O)C(C#N)C12CCCCC2 (stereo unspecified)	–	inactive: -4.45%
Cc1cc(C(=O)N/N=C/c2ccc(-c3ccc([N+](=O)[O-])cc3Cl)o2)n[nH]1	inconclusive: 22.4 µM [inhibitor, single point]	–
COc1ccccc1C(=O)N1CCN(Cc2cc(=O)oc3cc(C)ccc23)CC1	–	inactive: -4.53%
CCN1CCN(c2cc(C)c3cc(NC(=S)N4CCN(c5ccccc5)CC4)ccc3n2)CC1	inconclusive: 1.12 µM [inhibitor, partial curve, poor fit]	–
COc1cc(/C=C2\SC(=S)N(NC(=O)c3ccccc3O)C2=O)ccc1O	active: 11.2 µM	–
CCOC(=O)C1CCN(C(=O)c2ccc(S(=O)(=O)Nc3ccccc3Cl)cc2)CC1	inconclusive: 17.8 µM [inhibitor, partial curve, poor fit]	–
CC(=O)/C(C#N)=C1\NC(=O)C(Cc2cc(Cl)ccc2Cl)S1 (stereo unspecified)	inconclusive: 20 µM [inhibitor, single point]	–
FC(F)(F)c1nc(SCc2ccc(Cl)cc2Cl)n[nH]1	inconclusive: 35.5 µM [inhibitor, single point]	–
Cc1ccc(S(=O)(=O)n2cccc2/C=C/[N+](=O)[O-])cc1	–	inactive: -0.415%
CC1CC(C)(C)NC(=S)N1CCCC(=O)N1CCN(c2ccc(F)cc2)CC1 (stereo unspecified)	inconclusive: 35.5 µM [inhibitor, single point]	–

SMILES	Potency	activity, negative = active
COc1cc(C=c2c3ccccc3n3c2cc(-c2ccccc2)[n+]3C)cc(OC)c1OC	inconclusive: 17.8 µM [inhibitor, single point]	–
COC(=O)c1ccc(NC(=O)CSc2ncc3c(n2)-c2cc(Cl)ccc2N(Cc2ccccc2)S3(=O)=O)cc1	inconclusive: 6.31 µM [inhibitor, single point]	–
CCOC(=O)C(C(=O)OCC)C(Nc1ccc(Br)cc1)c1ccccc1 (stereo unspecified)	–	inactive: -19.3%
Cc1c(Cl)cccc1NC(=O)Nc1nnc(N(C)Cc2ccccc2)s1	inconclusive: 3.55 µM [inhibitor, partial curve, poor fit]	–
COCC(=O)OC/C(O)=C(\C#N)c1nc2ccccc2[nH]1	inconclusive: 35.5 µM [inhibitor, single point]	–
COC(=O)C1C2CC3c4[nH]c5cc(OC)ccc5c4CCN3CC2CC(OC(=O)CC(C)=O)C1OC (stereo unspecified)	active: 25.1 µM	–
CCCN(CCC)S(=O)(=O)c1ccc(C(=O)Nc2nnc(COC)o2)cc1	inconclusive: 35.5 µM [inhibitor, single point]	–
O=C1CSC(=S)N1N=Cc1ccc(Cl)cc1Cl	–	inactive: 1.75%
CCCCN(C)CCNC(=S)Nc1ccc2nc(N3CCN(CC)CC3)cc(C)c2c1	inconclusive: 31.6 µM [inhibitor, partial curve, poor fit]	–
COc1cc(/C=C/C(C)=NNc2ccccc2)ccc1O	inconclusive: 35.5 µM [inhibitor, single point]	–
Cc1ccc(C(=O)c2cc([N+](=O)[O-])ccc2N2CCCCC2)cc1	inconclusive: 6.31 µM [inhibitor, single point]	–
O=C(NC(=S)N1CCN(c2ccc([N+](=O)[O-])cc2Cl)CC1)c1ccco1	inconclusive: 7.08 µM [inhibitor, partial curve, poor fit]	–
Cn1c(=O)c2c(nc(Oc3ccccc3)n2Cc2c(Cl)cccc2Cl)n(C)c1=O	–	inactive: 0.537%
Cc1ccc2c(c1)c1c3n2CCN(C(=O)CCl)C3CCC1 (stereo unspecified)	–	inactive: 18.2%
O=C(O)c1ccc(Cl)c(S(=O)(=O)Nc2ccc3[nH]c(=O)[nH]c3c2)c1	inconclusive: 35.5 µM [inhibitor, partial curve, poor fit]	–
COc1ccc(-c2cc(C(F)F)n3ncc(C(=O)N4CCSCC4)c3n2)cc1	–	inactive: 7.81%
CN(Cc1ccccc1)C(=O)c1ccccc1C(=O)O	inconclusive: 6.31 µM [inhibitor, single point]	–
O=C(CCC(=O)NCCO)NCCO	inconclusive: 5.01 µM [inhibitor, single point]	–
COc1ccc2[nH]c(=O)c(-c3nnn(-c4ccccc4)n3)cc2c1	–	inactive: 6.47%
CC(=O)N1CC(=O)N=C1SCC(=O)Nc1nc(C)c(-c2ccccc2)s1	inconclusive: 28.2 µM [inhibitor, single point]	–
COc1ccc2c(c1)c1nc3ccccc3nc1n2CC(=O)OC(C)C	active: 25.1 µM	–
Cc1ccccc1N=C1NN=C(c2ccccc2F)CS1	inconclusive: 35.5 µM [inhibitor, single point]	–
CCC(C)Cn1cnc2c(Sc3c([N+](=O)[O-])ncn3C)nc(N)nc21 (stereo unspecified)	–	inactive: 9.33%
Cc1ccc(-c2cc(N)n[nH]2)cc1	–	inactive: -5.66%

SMILES	Potency	activity, negative = active
Cc1ccc(C2C(C#N)=C(N)SC(N)=C2C#N)cc1	inconclusive: 28.2 µM [inhibitor, single point]	–
CC(C)c1ccc(/C=N/NC(=O)c2cc(-c3cccc([N+](=O)[O-])c3)n[nH]2)cc1	inconclusive: 22.4 µM [inhibitor, single point]	–
CC(Oc1cccc(Br)c1)C(=O)NNC(=O)c1ccccn1 (stereo unspecified)	inconclusive: 22.4 µM [inhibitor, single point]	–
CC1CCC(C(C)C)C(OC(=O)C[n+]2cccc(C(N)=O)c2)C1 (stereo unspecified)	–	inactive: -6.88%
Cn1c(/C=C/c2ccc([N+](=O)[O-])o2)nc2ccccc2c1=O	active: 11.2 µM	–
COc1ccccc1C(=O)N/C(=C/c1cccc([N+](=O)[O-])c1)C(=O)Nc1cccc(C(=O)O)c1	inconclusive: 20 µM [inhibitor, partial curve, poor fit]	–
Cc1cccc(N(C)S(=O)(=O)c2nnc(NC(=O)c3ccco3)s2)c1	inconclusive: 35.5 µM [inhibitor, single point]	–
CC(C)N1CCc2c(sc(NC(=O)c3ccc(S(=O)(=O)N4CCc5ccccc54)cc3)c2C(N)=O)C1	active: 6.31 µM	–
COc1cc(C(=O)N2CCc3c([nH]c4ccccc34)C2c2ccc(C)cc2)cc(OC)c1OC (stereo unspecified)	–	inactive: 2.18%
Cc1ccc(/C=C/C(=O)N2CCN(S(=O)(=O)c3ccc(C)c(C)c3)CC2)o1	–	inactive: -20.5%
O=C(NC(=S)NC1CCS(=O)(=O)C1)c1ccccc1 (stereo unspecified)	–	inactive: -8.14%
COc1cccc(CNC(=O)CC(NC(=O)c2ccccc2)c2ccccc2)c1 (stereo unspecified)	inconclusive: 1.41 µM [inhibitor, partial curve, poor fit]	–
Cc1cccc(CN2C(=O)N/C(=C/c3ccc(C)s3)C2=O)c1	inconclusive: 28.2 µM [inhibitor, single point]	–
COc1cc(/C=C2\C(=N)N3N=C(S(C)(=O)=O)SC3=NC2=O)ccc1OS(=O)(=O)c1ccc(C)cc1	–	inactive: -12.2%
CC1C(c2ccccc2)N(C)C(c2ccccc2)CC1(O)c1ccccc1 (stereo unspecified)	inconclusive: 20 µM [inhibitor, partial curve, poor fit]	–
Clc1ccc(-c2nc(N3CCCCC3)nc3ccccc23)cc1	–	inactive: 2.43%
Cc1ccc(C(=O)O)cc1N1C(=O)c2cccc3c([N+](=O)[O-])ccc(c23)C1=O	inconclusive: 3.16 µM [inhibitor, partial curve, poor fit]	–
Cc1ccc(S(=O)(=O)C(C#N)c2nc3ccccc3nc2N2CCCC2)cc1 (stereo unspecified)	active: 22.4 µM	–
CC(=O)c1cccc(NC(=O)c2noc3c2CCCC3)c1	–	inactive: 0.188%
Cc1ccc(Cl)cc1N1CCN(C(CC(C)C)c2nnnn2CC2CCCO2)CC1 (stereo unspecified)	–	inactive: -8.03%
Cc1cc(N/N=C/c2ccc3c(c2)OCO3)nc2ccccc12	inconclusive: 22.4 µM [inhibitor, single point]	–
CCOc1cccc2c1OC(c1cc(OC)c(OC)c(OC)c1)N1N=C(c3ccc(C)o3)CC21 (stereo unspecified)	inconclusive: 22.4 µM [inhibitor, partial curve, poor fit]	–
COc1ccc(OC)c(NC(=O)/C=C/c2ccc(C)o2)c1	inconclusive: 35.5 µM [inhibitor, single point]	–
